{"source": "ChEMBL document CHEMBL3632470", "about": "“Antimalarial and Antiproliferative Cassane Diterpenes of Caesalpinia sappan” (J Nat Prod, 2015)", "system": "MCF7", "experiment": "Cytotoxicity against human MCF7 cells after 48 hrs by […]", "format": "functional, cell-based", "settings": "MCF7, 48 h"}
{"compound": "COc1cccc2c1C(=O)c1c(O)c3c(c(O)c1C2=O)C[C@@](O)(C(=O)CO)C[C@@H]3O[C@H]1C[C@H](N)[C@H](O)[C@H](C)O1", "note": "[DOXORUBICIN]", "values": [{"measurement": "IC50", "result": 830, "unit": "nM"}]}
